PubChem BioAssay AID1259405 | NCATS | 2018
This is an unselected part of about 50,000 reagents tested. Of all reagents, about 4,000 (8%) got an active call. 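Mouse siRNA library applied to hamster cells; one well for each siRNA.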 The numbers tell different reagents against one gene apart. Reagent sequences are not shown.

Assay: 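Silenced genes that increase secreted GFP made by CHO cells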 (primary screen)
System: Chinese hamster CHO-K1 ovary cells with stable secreted eGFP expression
Reagent: single siRNA against mouse genes, 0.8 pmol siRNA per well (2 µl of 400 nM stock)
Timing: 3 days
Measurement: 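Per-well intracellular GFP measured by laser scanning cytometry, plus viability from ATP luminescence, each relative to plate median of non-targeting control wells, in %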
Scale: GFP, % of control: higher = more GFP per well, higher productivity; viability (ATP), % of control: higher = more viable cells (more ATP)
Call rule: 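a knock-down is called active if GFP reaches 120% or more of non-targeting control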

| target gene | siRNA no. | GFP, % of control | viability (ATP), % of control | Outcome |
| --- | --- | --- | --- | --- |
| Nr4a1 | 1 | 89.3 | 69.7 | inactive |
| Nr4a1 | 2 | 59.2 | 69.7 | inactive |
| Nr4a1 | 3 | 69.5 | 73.7 | inactive |
| Midn | 1 | 60 | 65.6 | inactive |
| Midn | 2 | 72.6 | 61.8 | inactive |
| Midn | 3 | 69.3 | 56.1 | inactive |
| Qtgal | 1 | 65.9 | 74.6 | inactive |
| Qtgal | 2 | 61.8 | 39.8 | inactive |
| Qtgal | 3 | 43.6 | 72.9 | inactive |
| Cox18 | 1 | 151 | 108 | active |
| Cox18 | 2 | 76.8 | 59.4 | inactive |
| Cox18 | 3 | 63.3 | 67.8 | inactive |
| Susd2 | 1 | 144 | 112 | active |
| Susd2 | 2 | 45.9 | 55.9 | inactive |
| Fam135b | 1 | 72.9 | 87.1 | inactive |
| Fam135b | 2 | 99 | 94.8 | inactive |
| Fam135b | 3 | 71.1 | 71.9 | inactive |
| Fam135b | 4 | 90.9 | 110 | inactive |
| Fam135b | 5 | 81.7 | 90 | inactive |
| Fam135b | 6 | 55.8 | 69.6 | inactive |
| Lypd4 | 1 | 112 | 99.1 | inactive |
| Lypd4 | 2 | 118 | 104 | inactive |
| Lypd4 | 3 | 67.9 | 97.1 | inactive |
| Hsd3b7 | 1 | 94.9 | 82.5 | inactive |
| Hsd3b7 | 2 | 71.7 | 78 | inactive |
| Zfp507 | 1 | 82.8 | 75.6 | inactive |
| Zfp507 | 2 | 89.5 | 98.6 | inactive |
| Zfp507 | 3 | 101 | 84.5 | inactive |
| Or8u10 | 1 | 79.5 | 76.1 | inactive |
| Or8u10 | 2 | 68.7 | 79 | inactive |
| Or8u10 | 3 | 128 | 59.8 | active |
| Hcar2 | 1 | 38.1 | 70 | inactive |
| Hcar2 | 2 | 81.1 | 80.2 | inactive |
| Hcar2 | 3 | 60 | 57.6 | inactive |
| Dab2ip | 1 | 84.5 | 76.5 | inactive |
| Dab2ip | 2 | 41 | 27 | inactive |
| Dab2ip | 3 | 84.5 | 65.5 | inactive |
| Zmym1 | 1 | 82.5 | 72.7 | inactive |
| Zmym1 | 2 | 108 | 62.4 | inactive |
| Zmym1 | 3 | 72.1 | 98.2 | inactive |
| Kcnk5 | 1 | 103 | 108 | inactive |
| Kcnk5 | 2 | 64.8 | 52.6 | inactive |
| Kcnk5 | 3 | 148 | 110 | active |
| Pmis2 | 1 | 76.4 | 84 | inactive |
| Pmis2 | 2 | 81.2 | 72.5 | inactive |
| Pmis2 | 3 | 67.1 | 92 | inactive |

14 of these entries in another layout.
target gene | siRNA no. | GFP, % of control | viability (ATP), % of control | Outcome
Midn | 2 | 72.6 | 61.8 | inactive
Midn | 3 | 69.3 | 56.1 | inactive
Qtgal | 1 | 65.9 | 74.6 | inactive
Qtgal | 2 | 61.8 | 39.8 | inactive
Qtgal | 3 | 43.6 | 72.9 | inactive
Cox18 | 1 | 151 | 108 | active
Cox18 | 2 | 76.8 | 59.4 | inactive
Cox18 | 3 | 63.3 | 67.8 | inactive
Susd2 | 1 | 144 | 112 | active
Susd2 | 2 | 45.9 | 55.9 | inactive
Fam135b | 1 | 72.9 | 87.1 | inactive
Fam135b | 2 | 99 | 94.8 | inactive
Fam135b | 3 | 71.1 | 71.9 | inactive
Fam135b | 4 | 90.9 | 110 | inactive

Next records follow.
| target gene | siRNA no. | GFP, % of control | viability (ATP), % of control | Outcome |
| --- | --- | --- | --- | --- |
| Cd79a | 1 | 74.2 | 81.4 | inactive |
| Cd79a | 2 | 86.2 | 87.8 | inactive |
| Cd79a | 3 | 86.2 | 99.9 | inactive |
| Cdk14 | 1 | 60.2 | 64.8 | inactive |
| Cdh5 | 1 | 124 | 79.5 | active |
| Cdh5 | 2 | 26.3 | 26.9 | inactive |
| Cdh5 | 3 | 80.8 | 90.3 | inactive |
| Fam193b | 1 | 37.8 | 23.3 | inactive |
| Fam193b | 2 | 64 | 91.2 | inactive |
| Fam193b | 3 | 112 | 121 | inactive |
| Nkx6-2 | 1 | 38.5 | 29.7 | inactive |
| Nkx6-2 | 2 | 68.3 | 52.7 | inactive |
| Nkx6-2 | 3 | 47.4 | 49 | inactive |
| Zfp414 | 1 | 58.1 | 81.5 | inactive |
| Zfp414 | 2 | 116 | 88.3 | inactive |
| Zfp414 | 3 | 159 | 84.9 | active |
| Sgcg | 1 | 136 | 116 | active |
| Sgcg | 2 | 101 | 75.4 | inactive |
| Sgcg | 3 | 77.6 | 81.1 | inactive |
| Ddx39b | 1 | 103 | 76 | inactive |
| Ddx39b | 2 | 59.3 | 59.7 | inactive |
| Ddx39b | 3 | 60.1 | 82.5 | inactive |
| Chd3 | 1 | 80.9 | 54.6 | inactive |
| Chd3 | 2 | 109 | 56 | inactive |
| Chd3 | 3 | 69.4 | 59.8 | inactive |
| Nalcn | 1 | 82.6 | 79.4 | inactive |
| Nalcn | 2 | 37.1 | 57.3 | inactive |
| Nalcn | 3 | 69.4 | 59.6 | inactive |
| Nalcn | 4 | 84 | 56 | inactive |
| Nalcn | 5 | 51.7 | 76.1 | inactive |
| Nalcn | 6 | 65.2 | 69.8 | inactive |
| Dclre1b | 1 | 69.6 | 93.5 | inactive |
| Dclre1b | 2 | 58.2 | 38.8 | inactive |
| Dclre1b | 3 | 85.9 | 62.7 | inactive |
| Flii | 1 | 57.8 | 72.8 | inactive |
| Flii | 2 | 92.1 | 92.5 | inactive |
| Ciita | 1 | 85.9 | 65.7 | inactive |
| Ciita | 2 | 68 | 54.9 | inactive |
